Experimental data from patent publication US20160347850A1 (AbbVie / Abbott, published 2016).
No constants are given. Whether binding was seen depends on the method and setting. Some binding calls cover weakened binding; strength is not graded here.

Sequences of proteins named here, by UniProt entry; tags and fusion partners are left off. A change or cut given only in a name is not applied to a line headed by its entry. A line that says so, or that is headed by a name, gives the form on record, which may keep a tag or linker.
cyno CD40 (G7PG38, form named): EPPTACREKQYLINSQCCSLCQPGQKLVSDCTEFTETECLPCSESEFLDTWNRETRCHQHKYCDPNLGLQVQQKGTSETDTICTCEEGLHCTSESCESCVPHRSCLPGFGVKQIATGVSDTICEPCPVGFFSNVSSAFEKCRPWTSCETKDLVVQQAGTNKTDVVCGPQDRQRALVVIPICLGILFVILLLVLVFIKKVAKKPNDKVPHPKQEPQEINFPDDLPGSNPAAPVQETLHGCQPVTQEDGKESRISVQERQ
UniProt P25942: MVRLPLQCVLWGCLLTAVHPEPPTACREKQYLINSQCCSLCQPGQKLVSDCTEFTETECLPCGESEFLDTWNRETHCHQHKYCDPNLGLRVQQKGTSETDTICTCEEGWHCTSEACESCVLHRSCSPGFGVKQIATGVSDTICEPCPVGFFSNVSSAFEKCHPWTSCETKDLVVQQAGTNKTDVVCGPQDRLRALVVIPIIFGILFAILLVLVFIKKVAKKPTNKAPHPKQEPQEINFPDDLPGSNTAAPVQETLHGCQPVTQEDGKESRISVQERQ

Legend:
cyno CD40 [1] = target: T1, cyno CD40 (cynomolgus monkey, UniProt G7PG38 21-278); assay: FACS on HEK cells expressing cyno CD40
T1 construct: whole, on cells; also called cyCD40; cynomolgus monkey CD40

Human CD40 [2] = target: T2, Human CD40 (human, UniProt P25942 21-277); assay: FACS binding on HEK cells expressing huCD40
cyno CD40 [3] = target: T1, cyno CD40; assay: FACS binding on HEK cells expressing cyCD40
Human CD40 [4] = target: T2, Human CD40; assay: FACS on HEK cells expressing huCD40

Measured: binding

B1: chimeric Ab1 (chAb1) (antibody, V domains shown)
VH: EVQLVESGGGLVKPGGSLKVSCAASGFTFSDYGMNWVRQAPEKGLEWIAYISSGRSNIYYADTVKGRFTISRDNAKNTLFLQMTSLRSEDTAMYYCARSWGYFDVWGTGTTVTVSS
VL: DIVMTQSPSSLTVTAGEMVTMSCKSSQSLLNSGNQKNYLTWFQQKPGQPPKLLIYWASTRESGVPDRFAGSGSGTDFTLTISSVQAEDLAVYYCQNDYTYPLTFGAGTKLEIK
notes: Murine Ab1 variable regions on human constant regions; also called chimeric antibody (Antibody 1 (Ab1))
binds: cyno CD40 [1] | Human CD40 [2] | cyno CD40 [3] | Human CD40 [4]
